Data as given in PubChem BioAssay AID244 (DTP/NCI, 2004).
The list is a part of this screen's results and no random one: it gathers some chemical classes. Other doses and runs of a compound may be missing. T/C gives the treated animals as a percentage of the vehicle group. Where survival is the endpoint, this PubChem deposit counts one and a half times the control or more as active, and values a quarter to a half above the control carry no call in these data; other NCI protocols may use other cut-offs. Some entries show no survivor count and are marked so; the dose need not have been tolerated. Schedule codes are those of the source, taken here to give the interval after Q, in days (D) or hours (H), and the number of doses after X.

Tested on: CD2F1 mice, Lymphoma 8 ip, survival T/C
Test: NCI In Vivo Anticancer Drug Screen. Data for tumor model Lymphoma 8 (intraperitoneal) in CD2F1 (CDF1) mice
Conditions: T/C endpoint: survival time, mean or median, schedule: Q01DX010 (ip), vehicle: saline, higher T/C = longer survival
Method: The antitumor activity of compounds was measured in mice bearing transplantable tumors. Survival or tumor size were measured and the results are expressed as the measurement made in the treated group (T) divided by the measurement made in the vehicle treated control group (C). The tumor model used in this assay is Lymphoma 8 (intraperitoneal) in CD2F1 (CDF1) mice

## NC(Cc1cccc(N(CCCl)CCCl)c1)C(=O)O (stereo not drawn)
dose: 0.63 mg/kg/injection
  T/C: 118 % of control [survivor count not shown]
dose: 1.25 mg/kg/injection
  T/C: 154 % of control [survivor count not shown]
dose: 2.5 mg/kg/injection
  T/C: 109 % of control [survivor count not shown]
